Protein sequences, listed by entry. Tags and fused reporters are not part of them. Lines headed by an entry give the natural chain unless they say otherwise; changes in a name come on top.
UniProt P18054: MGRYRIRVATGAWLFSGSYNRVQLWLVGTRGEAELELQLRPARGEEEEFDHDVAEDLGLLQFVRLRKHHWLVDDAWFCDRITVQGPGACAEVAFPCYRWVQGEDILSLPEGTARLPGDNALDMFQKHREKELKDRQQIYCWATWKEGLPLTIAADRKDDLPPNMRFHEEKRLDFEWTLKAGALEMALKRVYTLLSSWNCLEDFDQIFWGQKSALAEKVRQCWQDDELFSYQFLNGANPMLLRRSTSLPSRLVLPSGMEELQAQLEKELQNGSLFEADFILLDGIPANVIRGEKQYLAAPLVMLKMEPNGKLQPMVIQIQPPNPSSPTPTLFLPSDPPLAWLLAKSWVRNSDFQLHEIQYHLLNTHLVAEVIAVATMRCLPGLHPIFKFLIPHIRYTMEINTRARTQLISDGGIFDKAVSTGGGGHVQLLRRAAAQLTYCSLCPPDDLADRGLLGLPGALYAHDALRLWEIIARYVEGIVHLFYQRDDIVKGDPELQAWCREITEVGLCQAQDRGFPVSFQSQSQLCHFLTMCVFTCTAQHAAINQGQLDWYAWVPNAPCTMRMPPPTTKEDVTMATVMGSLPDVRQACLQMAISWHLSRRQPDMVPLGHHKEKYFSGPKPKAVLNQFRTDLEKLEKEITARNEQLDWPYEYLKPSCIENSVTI

In all, about 580,000 compounds went through this assay and about 6,100 (1.1%) were called active. This list was built around the results that the source calls inconclusive (neither active nor inactive); the mix of calls is not that of the screen. Calls follow the shape of the dose curve; as a rule, active = well fitted inhibition curve with a large enough effect; inconclusive = small, poorly fitted or top-dose-only effect, or another doubt; inactive = no such curve, though single readings can be large or run the other way. Potencies of inconclusive entries are doubtful fits and often do not repeat.
Each molecule was assayed against Polyunsaturated fatty acid lipoxygenase ALOX12 (Homo sapiens) (UniProt P18054) (assay: Primary qHTS assay for inhibitors of human arachidonate 12S-lipoxygenase (ALOX12): Round 2). Conditions: purified 12hLO, xylenol orange hydroperoxide absorbance; series mostly up to 108 µM.
Procedure, shortened: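 Hydroperoxide product was detected by ferrous iron/xylenol orange as the 573 to 405 nm absorbance ratio. Arachidonic acid at 40 uM (final) was turned over for 30 min at room temperature by 150 nM human 12hLO, pH 7.0 Hepes buffer, after 15 min compound preincubation.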
`C=Cc1ccc(Cn2c(C(=O)O)c(CNCCc3ccco3)c3ccc(C)cc32)cc1` was tested, and the Potency was inconclusive: 56.2 µM [inhibitor, partial curve, poor fit]. `COc1ccc(-c2nsc3c(N4CCCCC4C)ncnc23)cc1` (stereo unspecified) was tested, and the Potency was “inactive”. For `CN(Cc1cccnc1)c1nc2c(c(=O)[nH]1)CCN(Cc1ccccc1C(F)(F)F)CC2`, the Potency was “inactive”. In the case of `CSC1=NC(C)(C)CC2(C)Nc3ccccc3N12` (stereo unspecified), the Potency is reported as inconclusive: 44.7 µM [inhibitor, partial curve, poor fit]. With `COC(=O)[C@]1(C)N[C@H](c2ccc(-c3ccc(Cl)c(Cl)c3)c(OC)c2)[C@@H]2C(=O)N(C)C(=O)[C@@H]21` the Potency was inconclusive: 44.7 µM [inhibitor, partial curve, poor fit]. With `CN(C)S(=O)(=O)c1cccc(NC(=O)CSc2cccc3cccnc23)c1` the Potency was inconclusive: 2.51 µM [inhibitor, full curve, poor fit]. With `COc1cc2nc(C)sc2cc1SC` the Potency was “inactive”. `CCCc1cc(=O)oc2cc(C)cc(OC(C)C(=O)NCCCN3CCOCC3)c12` (stereo unspecified) was tested, and the Potency was inconclusive: 17.8 µM [inhibitor, single point]. In the case of `Cc1cccc(NC(=S)NC(C)CCc2ccccc2)c1` (stereo unspecified), the Potency is reported as active: 39.8 µM. In the case of `CC(=O)NC(c1cccc(F)c1)c1nc(-c2ccc3ccccc3c2)cs1` (stereo unspecified), the Potency is reported as inconclusive: 35.5 µM [inhibitor, partial curve]. For `Cc1cc(C(C)(C)C)cc(S(=O)(=O)Nc2ccc(O)c(C(=O)O)c2)c1C`, the Potency was inconclusive: 50.1 µM [inhibitor, partial curve, poor fit]. For `COCCN1CC(CO)C2(CCN(Cc3cccc(Cl)c3F)CC2)C1` (stereo unspecified), the Potency was “inactive”. For `Nn1c(SCc2ncc(-c3ccccc3)o2)nnc1-c1ccc(F)cc1`, the Potency was inconclusive: 39.8 µM [inhibitor, partial curve, poor fit]. `O=C(CCS(=O)(=O)c1ccc(Br)s1)Nc1cc(C(F)(F)F)cc(C(F)(F)F)c1` was tested, and the Potency was inconclusive: 50.1 µM [inhibitor, partial curve, poor fit]. In the case of `O=C(CCc1ccccc1Cl)Nc1cc(S(=O)(=O)N2CCOCC2)ccc1N1CCCC1`, the Potency is reported as “inactive”. In the case of `Clc1ccc(CSc2nnc(CNc3cccc(Cl)c3)o2)cc1`, the Potency is reported as inconclusive: 89.1 µM [inhibitor, partial curve, poor fit]. With `O=C(Cn1ccc(=O)[nH]c1=O)N1C[C@H]2CC[C@@H]1CN(Cc1cscn1)C2` the Potency was active: 8.91 µM. `COc1ccc(-c2cc(C(=O)NC(Cc3c[nH]c4ccccc34)C(=O)O)c(C)o2)cc1OC` (stereo unspecified) was tested, and the Potency was inconclusive: 89.1 µM [inhibitor, partial curve, poor fit]. For `CN(CC(=O)Nc1cccc(F)c1)C(=O)c1ccc(COc2ccccc2)o1`, the Potency was “inactive”. For `COC(=O)CSc1nc(N)nc(C)c1Br`, the Potency was inconclusive: 126 µM [inhibitor, partial curve, poor fit]. For `NC(=O)C1CCN(Cc2ccc(OCc3ccccc3)cc2)CC1`, the Potency was inconclusive: 0.501 µM [inhibitor, full curve]. `COc1cccc(C(=O)Nc2nnc(C3CCCO3)s2)c1` (stereo unspecified) was tested, and the Potency was inconclusive: 39.8 µM [inhibitor, partial curve, poor fit]. For `Cc1cccc(C)c1Nc1c(-c2ccccn2)nc2ccc(Cl)cn12`, the Potency was inconclusive: 89.1 µM [inhibitor, partial curve, poor fit]. For `COc1ccc(Nc2ncccc2C(=O)NCc2ccccc2)cc1`, the Potency was “inactive”. For `O=C(O)CCCNS(=O)(=O)c1cccc(Cl)c1`, the Potency was “inactive”. In the case of `Cc1cccc(OC(=O)c2snnc2C)c1`, the Potency is reported as inconclusive: 112 µM [inhibitor, partial curve, poor fit]. For `COc1ccccc1C=C1SC(=S)NC1=O`, the Potency was “inactive”. With `Cc1ccc(C)c(S(=O)(=O)Nc2ccc(O)c(Sc3ncn[nH]3)c2)c1` the Potency was “inactive”. For `CC(=O)N1CCN(c2ccc(Nc3nc(C)nc4c3oc3ccccc34)cc2)CC1`, the Potency was inconclusive: 7.94 µM [inhibitor, partial curve, poor fit]. In the case of `COc1ccc2[nH]c(=O)c(CNc3ccccc3C)cc2c1`, the Potency is reported as inconclusive: 35.5 µM [inhibitor, single point]. With `CN(C(=O)c1csc(Cc2ccccc2)n1)C1CCCN(CCc2ccccc2)C1` (stereo unspecified) the Potency was inconclusive: 14.1 µM [inhibitor, full curve]. For `COc1ccc(CCNc2ncnc3c2CN(C2CCCNC2)C(=O)CN3C)cc1` (stereo unspecified), the Potency was inconclusive: 3.16 µM [inhibitor, full curve, poor fit]. `O=C1N[C@@H](c2ccccc2)COC(=O)[C@@H](Cc2ccc(F)cc2)C/C=C\C[C@H]1CC(=O)N(CCO)Cc1ccccc1` was tested, and the Potency was inconclusive: 50.1 µM [inhibitor, partial curve, poor fit]. With `COc1cccc(NC(=O)CCC2CCN(C(=O)c3sccc3C)CC2)c1` the Potency was “inactive”. `CCOc1ccc(C(=O)CN2CCN(S(=O)(=O)c3ccc(Br)cc3)CC2)cc1` was tested, and the Potency was inconclusive: 35.5 µM [inhibitor, partial curve, poor fit]. `Cc1ccc(C(=O)NCc2ccc3c(c2)CCO3)cc1C` was tested, and the Potency was inconclusive: 112 µM [inhibitor, single point]. `CCN(CC)CCC(=O)Nc1cccc2c1C(=O)c1ccccc1C2=O` was tested, and the Potency was “inactive”. For `CC(C)(C)C(C(=O)NCc1ccccc1)N1CCN(C(=O)C2CCCO2)CC1` (stereo unspecified), the Potency was “inactive”. With `CCN1CCN(CCNC(=O)c2cc(-c3ccc(Cl)cc3)cn2C)CC1` the Potency was inconclusive: 63.1 µM [inhibitor, single point]. In the case of `O=C(CSc1ccccc1)CSc1ccccc1`, the Potency is reported as inconclusive: 39.8 µM [inhibitor, partial curve, poor fit]. In the case of `CCOc1ccccc1-c1n[nH]c(=S)o1`, the Potency is reported as inconclusive: 7.08 µM [inhibitor, full curve]. In the case of `COc1cc(/C=N/N(C)S(=O)(=O)c2ccc(C)cc2)cc([N+](=O)[O-])c1O`, the Potency is reported as inconclusive: 126 µM [inhibitor, single point]. `C[C@H](NC(=O)/C(C#N)=C/c1ccc(O)c(O)c1)c1ccccc1` was tested, and the Potency was inconclusive: 0.251 µM [inhibitor, full curve, poor fit]. For `Cc1ccc(NCCC(=O)c2cccc([N+](=O)[O-])c2)c(C)c1`, the Potency was “inactive”. With `Cc1ccc(NC(=O)c2nc3ccccc3n(C)c2=O)cc1C` the Potency was inconclusive: 0.355 µM [inhibitor, full curve, poor fit]. With `COc1ccc(Cn2c(=O)[nH]c3cc(C(=O)NCCCN4CCCCCC4)ccc3c2=O)cc1` the Potency was inconclusive: 44.7 µM [inhibitor, partial curve, poor fit]. For `CCNC(=S)N/N=C(\C)c1cccc(C(F)(F)F)c1`, the Potency was inconclusive: 39.8 µM [inhibitor, partial curve, poor fit]. In the case of `CC(C)CCN1CCC(N2CCN(S(=O)(=O)c3ccc(CC(C)C)cc3)CC2)C1=O` (stereo unspecified), the Potency is reported as “inactive”. For `COC(=O)C1OC2(OC1C(=O)OC)c1ccccc1-c1ccccc12` (stereo unspecified), the Potency was inconclusive: 100 µM [inhibitor, single point]. `Cn1c(=O)c2cc(NC(=O)NCCc3ccccc3)ccc2n1Cc1ccc(F)cc1` was tested, and the Potency was inconclusive: 50.1 µM [inhibitor, partial curve, poor fit]. In the case of `CCc1nc2c(OCc3ccccc3C)cccn2c1N(C)C(=O)C(C)C`, the Potency is reported as inconclusive: 17.8 µM [inhibitor, partial curve, poor fit]. With `Cc1cc(C)c[n+](CC(=O)c2ccc(-c3ccccc3)cc2)c1` the Potency was “inactive”. With `Cc1ccccc1NC(=O)c1c(C)oc2ccc(O)c(CN3CCCCCC3)c12` the Potency was “inactive”. For `COc1ccc(NC(=O)COc2ccc(N(C)S(=O)(=O)c3ccc(Cl)cc3)cc2)cc1`, the Potency was “inactive”. `FC(F)(F)c1cccc(Nc2nc3nonc3nc2Nc2ccc(Cl)cc2)c1` was tested, and the Potency was inconclusive: 20 µM [inhibitor, full curve, poor fit]. In the case of `CCN(C(=O)Cn1c(C(=O)OC)cc2sccc21)c1cccc(C)c1`, the Potency is reported as “inactive”. With `CCC(C)(C)C1CCC(NC(=S)NCc2ccc(F)cc2)CC1` (stereo unspecified) the Potency was inconclusive: 31.6 µM [inhibitor, partial curve, poor fit]. `N#C/C(=C\c1c[nH]c2ccccc12)C(=O)NCC1CCCO1` (stereo unspecified) was tested, and the Potency was inconclusive: 100 µM [inhibitor, partial curve, poor fit]. With `O=C(O)c1c2c(nc3ccccc13)/C(=C/c1cccc([N+](=O)[O-])c1)CCC2` the Potency was active: 39.8 µM. For `O=c1[nH][nH]c(-c2ccccc2O)c1C(C[N+](=O)[O-])c1ccc(Cl)cc1Cl` (stereo unspecified), the Potency was inconclusive: 100 µM [inhibitor, partial curve, poor fit]. For `COc1ccc(/C=C2\SC(=S)N(NS(=O)(=O)c3ccc(C)cc3)C2=O)c(OC)c1`, the Potency was inconclusive: 0.355 µM [inhibitor, full curve, poor fit]. For `COc1cc(CN2CCN(S(=O)(=O)c3ccccc3)CC2)cc(OC)c1OC`, the Potency was inconclusive: 0.199 µM [inhibitor, full curve, poor fit]. `CC(C)=CCC/C(C)=C/CN1CC(=O)N2[C@H](C[C@@]3(n4ccc5ccccc54)c4ccccc4N(S(=O)(=O)c4ccccc4)[C@@H]23)C1=O` was tested, and the Potency was inconclusive: 28.2 µM [inhibitor, partial curve, poor fit]. In the case of `COC(=O)c1cc(C(=O)c2cc(F)ccc2O)cc(C(=O)OC)c1O`, the Potency is reported as inconclusive: 31.6 µM [inhibitor, partial curve]. `CCCNC(=O)NC(=O)CN(CC(C)C)C1CC1` was tested, and the Potency was inconclusive: 2.24 µM [inhibitor, full curve, poor fit]. In the case of `Cc1cnc(CNc2nc(-c3cccc(NS(C)(=O)=O)c3)nc3ccccc23)cn1`, the Potency is reported as inconclusive: 89.1 µM [inhibitor, partial curve, poor fit].

From PubChem BioAssay AID1671190 (National Center for Advancing Translational Sciences (NCATS), 2021)
Potency is read from the fitted curve at half-maximal effect.
